No constants are given. Whether binding was seen depends on the method and setting. For some of these results: Binding can be weak; no strength is given. For some of these results: Where a sequence is shown, tags or fusion partners need not be part of it.

Protein sequences, listed by entry. Tags and fused reporters are not part of them. Lines headed by an entry give the natural chain unless they say otherwise; changes in a name come on top.
UniProt P70232: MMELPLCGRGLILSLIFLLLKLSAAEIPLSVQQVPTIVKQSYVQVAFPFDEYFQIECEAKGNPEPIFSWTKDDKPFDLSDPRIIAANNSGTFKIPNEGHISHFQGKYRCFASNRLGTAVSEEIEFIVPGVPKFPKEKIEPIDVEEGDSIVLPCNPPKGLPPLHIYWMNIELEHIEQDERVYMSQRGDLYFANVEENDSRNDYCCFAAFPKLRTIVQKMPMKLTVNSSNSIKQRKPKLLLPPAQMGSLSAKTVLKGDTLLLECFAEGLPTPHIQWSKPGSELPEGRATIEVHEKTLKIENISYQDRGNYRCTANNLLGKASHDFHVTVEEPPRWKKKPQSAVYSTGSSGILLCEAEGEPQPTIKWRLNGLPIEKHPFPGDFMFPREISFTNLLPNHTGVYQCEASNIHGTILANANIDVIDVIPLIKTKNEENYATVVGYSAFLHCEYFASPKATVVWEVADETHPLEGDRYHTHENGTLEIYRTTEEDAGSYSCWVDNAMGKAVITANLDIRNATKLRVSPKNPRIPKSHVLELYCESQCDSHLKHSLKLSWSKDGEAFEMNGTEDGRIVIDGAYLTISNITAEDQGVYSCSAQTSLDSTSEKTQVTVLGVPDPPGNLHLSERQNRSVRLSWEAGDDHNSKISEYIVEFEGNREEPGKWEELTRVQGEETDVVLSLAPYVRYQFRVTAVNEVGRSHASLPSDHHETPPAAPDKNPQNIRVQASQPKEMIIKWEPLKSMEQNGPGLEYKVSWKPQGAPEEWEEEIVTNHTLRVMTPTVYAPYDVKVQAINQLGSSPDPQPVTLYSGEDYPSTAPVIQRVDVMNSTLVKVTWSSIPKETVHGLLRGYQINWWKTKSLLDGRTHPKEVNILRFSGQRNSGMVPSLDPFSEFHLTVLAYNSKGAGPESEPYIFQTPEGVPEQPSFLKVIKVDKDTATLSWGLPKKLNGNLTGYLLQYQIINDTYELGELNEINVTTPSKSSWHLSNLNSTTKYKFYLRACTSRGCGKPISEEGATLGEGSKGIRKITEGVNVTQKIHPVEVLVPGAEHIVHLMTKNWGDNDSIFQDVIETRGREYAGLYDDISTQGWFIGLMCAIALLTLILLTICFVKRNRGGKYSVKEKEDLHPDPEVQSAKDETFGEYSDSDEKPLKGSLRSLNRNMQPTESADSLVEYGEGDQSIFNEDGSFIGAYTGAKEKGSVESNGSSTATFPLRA
UniProt Q8BJU0: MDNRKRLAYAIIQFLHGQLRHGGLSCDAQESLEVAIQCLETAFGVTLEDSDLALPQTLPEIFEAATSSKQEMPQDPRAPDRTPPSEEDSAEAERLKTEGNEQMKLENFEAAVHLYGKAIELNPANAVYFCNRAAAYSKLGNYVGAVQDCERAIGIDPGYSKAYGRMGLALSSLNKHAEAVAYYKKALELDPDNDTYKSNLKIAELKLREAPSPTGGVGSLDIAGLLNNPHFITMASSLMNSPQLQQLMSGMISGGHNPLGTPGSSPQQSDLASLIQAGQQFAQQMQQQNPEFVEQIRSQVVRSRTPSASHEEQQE
UniProt P63017: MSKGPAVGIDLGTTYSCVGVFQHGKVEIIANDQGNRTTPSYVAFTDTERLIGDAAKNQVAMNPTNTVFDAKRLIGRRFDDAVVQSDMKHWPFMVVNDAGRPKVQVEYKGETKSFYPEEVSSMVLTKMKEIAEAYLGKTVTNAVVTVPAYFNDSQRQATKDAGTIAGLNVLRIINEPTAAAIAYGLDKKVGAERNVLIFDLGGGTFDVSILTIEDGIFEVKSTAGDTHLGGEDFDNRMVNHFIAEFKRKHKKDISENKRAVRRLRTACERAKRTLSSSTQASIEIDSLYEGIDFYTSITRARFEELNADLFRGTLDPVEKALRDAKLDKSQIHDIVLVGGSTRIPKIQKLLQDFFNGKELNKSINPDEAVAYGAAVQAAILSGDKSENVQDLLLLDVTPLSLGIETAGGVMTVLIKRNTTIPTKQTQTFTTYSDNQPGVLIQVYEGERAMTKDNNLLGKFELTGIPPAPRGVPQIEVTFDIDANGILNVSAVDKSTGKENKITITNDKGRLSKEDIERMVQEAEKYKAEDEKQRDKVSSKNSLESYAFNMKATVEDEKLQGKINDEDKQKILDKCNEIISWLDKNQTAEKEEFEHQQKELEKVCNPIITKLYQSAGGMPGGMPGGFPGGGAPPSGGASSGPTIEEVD
UniProt P60879: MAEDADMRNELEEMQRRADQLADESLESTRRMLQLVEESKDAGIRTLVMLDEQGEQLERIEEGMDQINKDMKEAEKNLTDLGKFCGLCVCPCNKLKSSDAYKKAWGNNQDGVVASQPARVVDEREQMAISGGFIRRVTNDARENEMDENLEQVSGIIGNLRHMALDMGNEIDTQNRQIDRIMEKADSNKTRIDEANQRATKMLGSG
UniProt P63044: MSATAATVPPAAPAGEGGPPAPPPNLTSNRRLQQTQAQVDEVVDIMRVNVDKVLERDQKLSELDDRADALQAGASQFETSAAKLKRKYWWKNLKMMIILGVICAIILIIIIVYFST

The target of test [1] is CHL1ID with deletion of the C-terminal 19 amino acid stretch, GST-tagged (UniProt P70232). Description: pull-down; CHL1ID fragments immobilized on beads via the GST tag; Hsc70, CSP or αSGT in solution; Western blot; both purified.
Test [2] concerns the target recombinant CHL1 intracellular domain (CHL1ID), His6-tagged (UniProt P70232). Description: dynamic light scattering; recombinant proteins mixed in solution; 20°C; 22 measurements per sample; radii of particles; both purified.
Test [3] addresses T1, GST-tagged CSP (UniProt P60904).
T1 sequence: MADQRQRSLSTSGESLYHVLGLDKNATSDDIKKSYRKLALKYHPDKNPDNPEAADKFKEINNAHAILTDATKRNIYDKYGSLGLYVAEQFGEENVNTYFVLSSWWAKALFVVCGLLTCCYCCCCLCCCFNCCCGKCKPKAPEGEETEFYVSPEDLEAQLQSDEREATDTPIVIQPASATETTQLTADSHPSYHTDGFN
Description: pull-down; GST-tagged CSP immobilized on beads; mixture of Hsc70 and αSGT with or without CHL1ID in solution, in the presence of ADP or ATP; Western blot, optical density; both purified. For orientation: Immunoblotting shows a protein as a band on a membrane.

The target of test [4] is T1, GST-tagged CSP. The test is described as follows: pull-down; GST or GST-tagged Hsc70, CSP, αSGT, βSGT immobilized on beads; CHL1ID in solution; overnight at 4°C in PBS pH 7.5 with 3% BSA, 0.1% Tween 20, 1 mM ADP or ATP; Western blot; both purified.
Another test deals with GST-tagged αSGT (UniProt Q8BJU0). The test is described as above.
The next test concerns the target T2, GST-tagged βSGT (UniProt Q8VD33).
T2 sequence: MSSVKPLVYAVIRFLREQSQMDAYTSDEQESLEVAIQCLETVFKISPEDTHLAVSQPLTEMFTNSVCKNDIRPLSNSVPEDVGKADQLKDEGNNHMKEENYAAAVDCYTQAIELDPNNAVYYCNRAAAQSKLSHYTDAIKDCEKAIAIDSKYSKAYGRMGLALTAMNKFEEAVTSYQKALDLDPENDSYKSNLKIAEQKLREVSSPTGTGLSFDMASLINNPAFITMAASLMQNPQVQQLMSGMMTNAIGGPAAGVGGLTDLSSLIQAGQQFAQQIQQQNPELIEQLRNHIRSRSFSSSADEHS
The test is described as above.

The target in a further test is GST-tagged Hsc70 (UniProt P63017). Described as above.
Test [5] deals with recombinant CHL1 intracellular domain (CHL1ID), His6-tagged (UniProt P70232). Description: ELISA; CHL1ID (1.9 µM) immobilized on plastic; SNAP25 (4 µM) or VAMP2 (6 µM) pre-treated by exposure to 42°C (non-native), overnight at 4°C in PBS, 0.05% Tween 20, 0.1% BSA; both purified. In general terms: In an ELISA, binding on a coated surface is turned into a signal by an enzyme label.

As to “His6-tagged αSGT (from UniProt Q8BJU0 1-315)”, the values for the binding result in test [1] and in test [2] were “no binding” and “binds”, respectively.
For the molecule “recombinant CHL1 intracellular domain (CHL1ID), His6-tagged (from UniProt P70232) (domain or fragment)”, the binding result is recorded as “binds” with GST-tagged CSP [3]; “binds” with GST-tagged CSP [4]; “binds” with GST-tagged αSGT; “no binding” in the test with GST-tagged βSGT; “binds” in the test with GST-tagged Hsc70.
Regarding “recombinant SNAP25 (from UniProt P60879 1-206)”, in test [5], the binding entry was “binds”.
On to “recombinant VAMP2 (from UniProt P63044 1-116)”, for which the binding entry in test [5] is recorded as “binds”.

B1: GST-tagged CSP (protein, UniProt P60904 1-198)
chain: T1 sequence
For the molecule B1, the binding entry in test [2] was “binds”.

Source of the values: paper PMC2920317, “CHL1 Is a Selective Organizer of the Presynaptic Machinery Chaperoning the SNARE Complex” (PLoS ONE, 2010).
